{"source": "PubChem BioAssay AID743454 (Peter MacCallum Cancer Centre, 2014)", "screen": "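Search for knock-downs that restore vorinostat killing in resistant colon cancer cells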 (primary screen)", "system": "human HCT116-VR colon cancer cells, selected for vorinostat resistance", "knock-down reagent": "siRNA pool against human genes, 40 nM siRNA pool", "time to read-out": "vorinostat for 24 h, read-out about 72 h after transfection", "treatment": "vorinostat at 2.5 µM final", "detection": "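Two measures, CellTiter-Fluor viability and luminescent caspase 3/7 activity, each as fold change against same-plate mock wells, mean of duplicates, then screen-wide robust z-score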", "scale": "viability robust z-score: higher = more viable cells than screen typical; caspase robust z-score: higher = more caspase 3/7 activity than screen typical", "active means": "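Hits are knock-downs in viability class RV1/RV2 or caspase class CA1/CA2, excluding ones that killed cells in the no-drug cell-count arm; hits then retested with single siRNAs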", "note": "This is a random part of about 18,000 reagents tested. 450 of all reagents (2.5%) were called active. 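Single biological run; no consistent viability z cut-off exists, so the class columns, not z-scores, define the calls.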 A number with no mark means an inactive call."}
{"gene": "NEUROG3", "viability hit class": "no change", "caspase hit class": "no change", "viability robust z-score": 0.63, "caspase robust z-score": -0.36}
{"gene": "PRODH2", "viability hit class": "no change", "caspase hit class": "no change", "viability robust z-score": 0.82, "caspase robust z-score": -0.74}
{"gene": "SESN2", "viability hit class": "no change", "caspase hit class": "no change", "viability robust z-score": 1.36, "caspase robust z-score": -0.62}
{"gene": "SACS", "viability hit class": "no change", "caspase hit class": "no change", "viability robust z-score": 1.01, "caspase robust z-score": -0.78}
{"gene": "FZD1", "viability hit class": "no change", "caspase hit class": "no change", "viability robust z-score": 1.46, "caspase robust z-score": 0.66}
{"gene": "RUSC2", "viability hit class": "no change", "caspase hit class": "no change", "viability robust z-score": -2.74, "caspase robust z-score": -1.16}
{"gene": "DENND6B", "viability hit class": "no change", "caspase hit class": "no change", "viability robust z-score": -1.17, "caspase robust z-score": 2.54}
{"gene": "C5orf22", "viability hit class": "no change", "caspase hit class": "no change", "viability robust z-score": -0.49, "caspase robust z-score": 1.36}
{"gene": "OR1E1", "viability hit class": "no change", "caspase hit class": "no change", "viability robust z-score": 0.37, "caspase robust z-score": 3.42}
{"gene": "GDPD5", "viability hit class": "no change", "caspase hit class": "no change", "viability robust z-score": -0.74, "caspase robust z-score": -0.7}
{"gene": "PSMD9", "viability hit class": "no change", "caspase hit class": "no change", "viability robust z-score": -1.17, "caspase robust z-score": 0.92}
{"gene": "MYL10", "viability hit class": "no change", "caspase hit class": "no change", "viability robust z-score": -1.64, "caspase robust z-score": 0.88}
{"gene": "UBAC1", "viability hit class": "no change", "caspase hit class": "no change", "viability robust z-score": 0.66, "caspase robust z-score": -0.36}
{"gene": "NOL11", "viability hit class": "no change", "caspase hit class": "no change", "viability robust z-score": -1.7, "caspase robust z-score": 1.72}

The list goes on (3 carried over from the part before).
{"gene": "MYL10", "viability hit class": "no change", "caspase hit class": "no change", "viability robust z-score": -1.64, "caspase robust z-score": 0.88}
{"gene": "UBAC1", "viability hit class": "no change", "caspase hit class": "no change", "viability robust z-score": 0.66, "caspase robust z-score": -0.36}
{"gene": "NOL11", "viability hit class": "no change", "caspase hit class": "no change", "viability robust z-score": -1.7, "caspase robust z-score": 1.72}
{"gene": "KCNH8", "viability hit class": "no change", "caspase hit class": "no change", "viability robust z-score": -0.04, "caspase robust z-score": 0.04}
{"gene": "ANKRD28", "viability hit class": "no change", "caspase hit class": "no change", "viability robust z-score": 0.52, "caspase robust z-score": -0.2}
{"gene": "RRAS", "viability hit class": "no change", "caspase hit class": "no change", "viability robust z-score": -0.36, "caspase robust z-score": 1.61}
{"gene": "EFCAB5", "viability hit class": "no change", "caspase hit class": "no change", "viability robust z-score": 0.18, "caspase robust z-score": -0.45}
{"gene": "LIN54", "viability hit class": "no change", "caspase hit class": "no change", "viability robust z-score": 0.78, "caspase robust z-score": 1.08}
{"gene": "CEP44", "viability hit class": "no change (active)", "caspase hit class": "CA1 (caspase activation)", "viability robust z-score": 0.97, "caspase robust z-score": 5.92}
{"gene": "MARS1", "viability hit class": "no change", "caspase hit class": "no change", "viability robust z-score": -0.32, "caspase robust z-score": 1.33}
{"gene": "IGSF6", "viability hit class": "no change", "caspase hit class": "no change", "viability robust z-score": -0.15, "caspase robust z-score": -0.65}
{"gene": "VAMP4", "viability hit class": "no change", "caspase hit class": "no change", "viability robust z-score": -0.2, "caspase robust z-score": 2.42}
{"gene": "TRAPPC10", "viability hit class": "no change", "caspase hit class": "no change", "viability robust z-score": 0.16, "caspase robust z-score": -1.34}
{"gene": "KCNK9", "viability hit class": "no change", "caspase hit class": "no change", "viability robust z-score": -0.44, "caspase robust z-score": 0.81}
{"gene": "PIP", "viability hit class": "no change", "caspase hit class": "no change", "viability robust z-score": -0.96, "caspase robust z-score": -0.46}
{"gene": "ATAD2", "viability hit class": "no change", "caspase hit class": "no change", "viability robust z-score": -0.34, "caspase robust z-score": -0.76}
